Literature values as cited in patent US20160213733A1, “CHARACTERIZATION OF RICE” (Phytoquest Limited, priority 2013, published 2016).
At least one compound was matched to its structure with a doubt left.

Test system: disaccharidases
Settings: mouse, in vivo; cited from earlier work

SMILES: OC[C@H]1NC[C@H](O)[C@@H](O)[C@@H]1O [DNJ, 3,4,5-trihydroxy-2-hydroxymethyl tetrahydropyridine]
- glucose absorption in the small intestine (in words): inhibit glucose absorption
